# Where “and” joins values, the source holds several entries; their conditions need not be identical. Equal values may be shown once. Further values from the same series stand in other lists.
# System: Salmonella typhimurium TA98
# Experiment: Bacterial reverse mutation test (Ames), strain TA98
# Assay type: cell-based
# Conditions: for Revertant Colonies (With S9), plates A, B, C / Revertant Colonies (Without S9), plates A, B, C: individual plates
# Protocol: The reverse mutation test was performed to determine the potential of BondLynx and/or its metabolites to induce reverse mutations at the histidine locus of Salmonella typhimurium.[26],[27] The test employs strains of Salmonella typhimurium carrying mutations in the genes involved in histidine production, such that they are only able to grow in histidine supplemented culture media. Upon exposure to mutagenic materials, these mutations may be reversed, thereby restoring the ability to grow in histidine-free media. When grown in the presence of the test compound on media with a small amount of histidine, tester strains grow briefly to allow the opportunity for mutation, followed by proliferation of revertant colonies upon depletion of the provided histidine. Thus, the number of revertant colonies following incubation is indicative of the ability of the test compound to induce mutations.
# Tests were performed on two strains of the bacteria (TA98 and TA100) in the absence and presence of an exogenous mammalian metabolic activation system (5% v/v S9). Positive controls and BondLynx were suspended in dimethyl sulfoxide (DMSO) for testing, and DMSO served as the vehicle control. Positive controls consisted of 2-nitrofluorene (10 μg/plate) for the TA98 strain without S9, methyl mesylate (650 μg/plate) for the TA100 strain without S9, and 2-aminoanthracene for both strains with S9 (1 μg/plate for TA98 and 5 μg/plate for TA100). Eight concentrations of BondLynx (1.7, 5.4, 17, 52, 164, 512, 1600 and 5000 μg/plate) were tested in triplicate. The vehicle control was tested in triplicate and the positive controls were tested singular.
# Test solutions were prepared by pre-incubating .1 mL fresh bacterial culture (10^9 cells/mL), .1 mL of a BondLynx dilution or control solution, and .5 mL of S9 mix or .1 M phosphate buffer for 30 min before adding to 3 mL of molten (45 ± 2°C) top agar. After mixing in a vortex, agar solutions were poured onto selective agar plates. Upon solidification, the prepared plates were inverted and incubated at 37.0 ± 1.0°C for 48 ± 4 h. Following incubation, revertant colonies were counted with a Sorcerer Colony Counter. The condition of the bacterial background lawn was evaluated macroscopically and/or microscopically using a dissecting microscope when considered necessary.
smiles,measurement,setting,value
"FC(F)(F)C1(c2ccc(C(c3ccc(C4(C(F)(F)F)N=N4)cc3)(C(F)(F)F)C(F)(F)F)cc2)N=N1 [BondLynx, 2,2-bis-[4-[3-(trifluoromethyl)-3H-diazirin-3-yl]phenyl]hexafluoropropane]","Revertant Colonies (With S9), Mean ± SD","TA98, with S9, 17 μg/plate",11 ± 5
same,"Revertant Colonies (With S9), plates A, B, C","TA98, with S9, 17 μg/plate",11 and 6 and 16
same,"Revertant Colonies (With S9), Mean ± SD","TA98, with S9, 52 μg/plate",14 ± 1
same,"Revertant Colonies (With S9), plates A, B, C","TA98, with S9, 52 μg/plate",15 and 14 (2×)
same,"Revertant Colonies (With S9), Mean ± SD","TA98, with S9, 164 μg/plate",21 ± 4
same,"Revertant Colonies (With S9), plates A, B, C","TA98, with S9, 164 μg/plate",16 and 23 and 24
same,"Revertant Colonies (With S9), Mean ± SD","TA98, with S9, 512 μg/plate",20 ± 6
same,"Revertant Colonies (With S9), plates A, B, C","TA98, with S9, 512 μg/plate",15 and 19 and 26
same,"Revertant Colonies (Without S9), Mean ± SD","TA98, without S9, 52 μg/plate",10 ± 6
same,"Revertant Colonies (Without S9), plates A, B, C","TA98, without S9, 52 μg/plate",5 and 16 and 8
same,"Revertant Colonies (Without S9), Mean ± SD","TA98, without S9, 164 μg/plate",9 ± 5
same,"Revertant Colonies (Without S9), plates A, B, C","TA98, without S9, 164 μg/plate",8 and 14 and 5
same,"Revertant Colonies (Without S9), Mean ± SD","TA98, without S9, 512 μg/plate",13 ± 3
same,"Revertant Colonies (Without S9), plates A, B, C","TA98, without S9, 512 μg/plate",10 and 12 and 16

# From article PMC10916352, “Safety Evaluation of a Prototypical Diazirine-Based Covalent Crosslinker and Molecular Adhesive” (International Journal of Toxicology, 2023)
